PubChem BioAssay AID743121 | NCATS – 2013

- Assay: 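Knock-downs that sensitise breast cancer cells to camptothecin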 (primary screen)
- System: MDA-MB-231 cells, a human breast cancer line
- Knock-down reagent: single siRNA against human genes, 20 nM siRNA (0.8 pmol per well)
- Duration: 120 h (drug added 48 h after transfection, read 72 h later)
- Conditions: camptothecin 20 nM (about EC30) for 72 h; vehicle 0.1% DMSO in parallel plates
- Measurement: 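CellTiter-Glo ATP signal, scaled to control siRNA as percent viability; sensitisation given as log2 of untreated divided by camptothecin-treated viability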
- Direction: log2 vehicle/camptothecin viability: higher = stronger sensitisation to camptothecin; viability with camptothecin: higher = more viable cells
- Units: viability with camptothecin in % of control
- Rule for the call: 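Active genes have an RSA gene-level p-value below 0.001, computed from the ratios of their separate siRNAs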
The deposit covers about 26,000 reagents; shown is an unselected part. Over the whole deposit, 167 (0.63%) got an active call. 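Calls are per gene from RSA p-values that are not deposited; an individual active-marked siRNA can sensitise only weakly.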 Reagents against one gene are numbered here. Further read-outs or replicates are left out here. Reagent sequences are not shown.

For MAGED1 #1, how do the results read?
log2 vehicle/camptothecin viability: -0.49; viability with camptothecin: 91.5; Call: inactive

With MAGED1 #2, what does the deposit list?
log2 vehicle/camptothecin viability: -0.22; viability with camptothecin: 95.3; Call: inactive

For MAGED1 #3, what was measured?
log2 vehicle/camptothecin viability: 0.00747; viability with camptothecin: 85.5; Call: inactive

For MAGED1 #4, what does the deposit list?
log2 vehicle/camptothecin viability: -0.0688; viability with camptothecin: 46.8; Call: inactive

With RBFOX2 #1, what does the deposit list?
log2 vehicle/camptothecin viability: -0.202; viability with camptothecin: 101; Call: inactive

Which result is listed for RBFOX2 #2?
log2 vehicle/camptothecin viability: 0.00631; viability with camptothecin: 82.6; Call: inactive

For RBFOX2 #3, what does the deposit list?
log2 vehicle/camptothecin viability: -0.213; viability with camptothecin: 122; Call: inactive

With RBFOX2 #4, how do the results read?
log2 vehicle/camptothecin viability: 0.711; viability with camptothecin: 30.4; Call: inactive

What did the screen give for HECW2 #1?
log2 vehicle/camptothecin viability: -0.538; viability with camptothecin: 89.6; Call: inactive

How did the screen score HECW2 #2?
log2 vehicle/camptothecin viability: 0.316; viability with camptothecin: 48.2; Call: inactive

For HECW2 #3, what does the deposit list?
log2 vehicle/camptothecin viability: -0.0463; viability with camptothecin: 97.2; Call: inactive

With GRIK2 #1, what does the deposit list?
log2 vehicle/camptothecin viability: -0.0713; viability with camptothecin: 78.9; Call: inactive

With GRIK2 #2, what does the deposit list?
log2 vehicle/camptothecin viability: -0.115; viability with camptothecin: 109; Call: inactive

What did the screen give for GRIK2 #3?
log2 vehicle/camptothecin viability: -0.513; viability with camptothecin: 115; Call: inactive
